Measurements: the supplement of paper PMC5249140, “Delineating Substrate Diversity of Disparate Short-Chain Dehydrogenase Reductase from Debaryomyces hansenii” (PLoS ONE, 2017)
Repeats are few or missing, and single values can be far off.

These compounds were tested on DHK short-chain dehydrogenase reductase (Debaryomyces hansenii, Q6BTD7) (assay: apparent turnover number kcat for ketone reduction (NADPH consumption, 100 uM substrate) (s-1); higher = faster reduction of the ketone by the enzyme). Conditions: substrate concentration 100 µM; NADPH 100 µM; pH 7.4; 25 °C.
Protocol: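 Purified N-His6 DHK (unannotated SDR, Debaryomyces hansenii) was screened against a prochiral ketone library: 100 uM substrate, 100 uM NADPH, 1% BSA, 4% DMSO in 100 mM sodium phosphate / 100 mM NaCl pH 7.4 at 25 C, ~27 nM enzyme. Rate was followed by NADPH depletion at 340 nm and reported as apparent kcat (s-1) at a single substrate concentration; no replicates stated.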

| Compound | apparent turnover number kcat |
| --- | --- |
| O=C1C(=Cc2ccccc2OC(F)F)C(=O)c2ccccc21 | 2.91 |
| CC(=O)c1cccc(Nc2nnc(C)c(=O)[nH]2)c1 | 4.57 |
| Cc1ccnc(NC(=O)COC(=O)CN2C(=O)C(=O)c3ccccc32)c1 | 5.54 |
| O=C1C(Cl)=C(N2CCN(c3ccc([N+](=O)[O-])cc3)CC2)C(=O)c2ccccc21 | 0.718 |
| CC(=O)c1cccc(S(=O)(=O)Nc2ccc(C(=O)[O-])cc2)c1 | 0.461 |
| CCc1ccc(C(=O)COC(=O)CN2C(=O)c3ccccc3C2=O)cc1 | 4.45 |
| O=C(CN1C(=O)c2cccc([N+](=O)[O-])c2C1=O)OCC(=O)c1ccccc1Cl | 5.92 |
| O=C(C=Cc1ccccc1)OCC(=O)c1ccc([N+](=O)[O-])cc1 | 4.69 |
| O=C1COc2ccc(C(=O)COC(=O)c3cccs3)cc2N1 | 4.8 |
| Cn1c(=O)[nH]c(=O)c2c1nc(Br)n2CC(=O)c1ccccc1 | 3.08 |
| Cc1ccc(C(=O)COC(=O)CCN2C(=O)c3c(Cl)c(Cl)c(Cl)c(Cl)c3C2=O)cc1 | 3.65 |
| CC(=O)c1cccc(S(=O)(=O)N2CCC(C(=O)[O-])CC2)c1 | 7.27 |
| O=C1c2cc(S(=O)(=O)N3CCOCC3)ccc2-c2ccc(S(=O)(=O)N3CCOCC3)cc21 | 0.00408 |
| COCCN1C(=O)c2ccc(C(=O)c3ccc([N+](=O)[O-])cc3)cc2C1=O | 7.01 |
| O=C(CN1CCN(c2cccc(Cl)c2)CC1)c1ccc(O)cc1O | 8.14 |
| C=CCn1c(SCC(=O)c2ccc3c(c2)OCCO3)nc2sc(CC)cc2c1=O | 0.00204 |
| O=C(CCN1C(=O)c2ccccc2C1=O)C[N+](=O)[O-] | 4.88 |
| CC1(C)CC(=O)C(C(=O)CC2CC(=O)NC(=O)C2)C(=O)C1 | 5.38 |
| O=C1CN(C(=O)CCC(=O)c2ccc(Br)cc2)CCN1 | 3.62 |
| O=C(OCC(=O)c1cccc2ccccc12)c1ccccc1[N+](=O)[O-] | 4.14 |

| Compound | apparent turnover number kcat |
| --- | --- |
| CN1C(=O)C(O)=C(C(=O)c2ccc(Br)cc2)C1c1ccccc1[N+](=O)[O-] (centres undefined) | 5.57 |
| Cc1cccc(C(=O)NNC2=CC(=O)CC(C)(C)C2)c1O | 6.1 |
| CC(=O)c1c(C)oc2ccc(N(C(C)=O)S(=O)(=O)c3ccc(C)c([N+](=O)[O-])c3)cc12 | 4.76 |
| CC(=O)N1CN2CN(C(C)=O)CC(C(=O)c3ccccc3)(C2)C1 | 4.75 |
| O=C(CNC(=O)C1Cc2ccccc2C(=O)O1)c1cccs1 (centres undefined) | 5.57 |
| O=C(CN1C(=O)c2cccc([N+](=O)[O-])c2C1=O)OCC(=O)c1ccc(Cl)s1 | 4.74 |
| O=C(COC(=O)c1cccnc1)c1ccc(-c2ccccc2)cc1 | 4.34 |
| O=C(CN1C(=O)c2ccccc2C1=O)c1ccc(O)cc1O | 3.77 |
| O=C(COC(=O)c1cc2ccccc2cc1O)c1ccc(F)c(F)c1 | 3.86 |
| O=C(CSc1nnc(-c2cccnc2)o1)c1ccc(Br)cc1 | 4.42 |
| CC(C)CC(C(=O)C(C#N)=C1Nc2ccccc2N1)N1C(=O)c2ccccc2C1=O (centres undefined) | 4 |
| COc1ccc(S(=O)(=O)Nc2ccc(C(C)=O)cc2)cc1[N+](=O)[O-] | 5.29 |
| Cc1ccc(C2CC(=O)NC3=C2C(=O)CC(c2ccccc2)C3)cc1[N+](=O)[O-] (centres undefined) | 5.53 |
| CC(=O)N1CN2CN(C(C)=O)CC(C(=O)c3ccc([N+](=O)[O-])cc3)(C2)C1 | 6.52 |
| O=C(CSc1nnc(-c2ccco2)o1)c1ccc2c(c1)OCCO2 | 5.43 |
| Cc1sc2ncnc(SCC(=O)c3ccc(O)cc3O)c2c1C | 3.55 |
| O=C(CNC(=O)c1ccccc1)OCC(=O)c1ccc([N+](=O)[O-])cc1 | 4.39 |
| N#Cc1cnc(SCC(=O)c2ccc3c(c2)NC(=O)CO3)nc1N | 5.07 |
| Cc1occc1-c1nnc(SCC(=O)c2cc3ccccc3oc2=O)o1 | 8.72 |
| CCc1c(C#N)c(SCc2ccc3c(c2)OCCO3)nc2c1C(=O)CC(C)(C)C2 | 0.321 |

Fetched one by one from the list above (two):

| Compound | apparent turnover number kcat |
| --- | --- |
| CCc1c(C#N)c(SCc2ccc3c(c2)OCCO3)nc2c1C(=O)CC(C)(C)C2 | 0.321 |
| O=C(COC(=O)c1cccnc1)c1ccc(-c2ccccc2)cc1 | 4.34 |

The list continues:

| Compound | apparent turnover number kcat |
| --- | --- |
| COc1ccc(O)c(C(=O)c2cnc3cc4c(cc3c2)OCO4)c1 | 4.04 |
| CC(C)Oc1ccc(C2CC(=O)NC3=C2C(=O)CCC3)cc1 (centres undefined) | 3.99 |
| CC1(C)CC(=O)C=C(NNC(=O)c2cccnc2)C1 | 2.88 |
| CC(=O)c1ccc(NC2OC(CO)C(O)C(O)C2O)cc1 (centres undefined) | 4.94 |
| Cc1ccc(C(=O)COC(=O)CCN2C(=O)c3ccccc3C2=O)c(C)c1 | 4.45 |
| O=C(CSc1nnnn1Cc1cccs1)c1ccc2c(c1)CCC2 | 4.54 |
| Cc1ccc(C(=O)COc2ccc3c(-c4ccccc4)cc(=O)oc3c2)cc1 | 2.89 |
| CC(=O)c1cccc(Nc2nc(-c3cc4ccccc4oc3=O)cs2)c1 | 4.14 |
| CC(=O)N(C1=C(O)C(=O)c2ccccc2C1=O)c1ccccc1 | 6.06 |
| CC(=O)N(C1=C(Cl)C(=O)c2ccccc2C1=O)c1cccc(Br)c1 | 6.28 |
| CC(C)c1noc2ncc(C(=O)c3ccccc3O)cc12 | 6.79 |
| Cc1ccc(C(=O)C2=C(O)C(=O)N(C)C2c2ccccc2[N+](=O)[O-])cc1 (centres undefined) | 8.75 |
| O=C(CCNc1ccc2ccccc2c1)c1ccc([N+](=O)[O-])cc1 | 2.74 |
| O=C([O-])CCN1C(=O)c2ccc(C(=O)c3ccc(C(=O)[O-])cc3)cc2C1=O | 5.23 |
| O=C(COC(=O)c1n[nH]c2ccccc12)c1c[nH]c2ccccc12 | 4.48 |
| O=C(CN1CCN(c2ccc(F)cc2)CC1)c1ccc(O)cc1O | 5.99 |
| O=C(CCNc1ccc(Cc2ccncc2)cc1)c1cccc([N+](=O)[O-])c1 | 3 |
| O=C(CC(C(=O)O)n1cnc([N+](=O)[O-])n1)c1ccc(Br)cc1 (centres undefined) | 4.39 |
| O=C(COc1ccc2c(-c3ccccc3)cc(=O)oc2c1)c1ccc2c(c1)OCO2 | 2.96 |
